Assay: peptide synthesis
Settings: conjugation step

Row | Substance | conjugation yield [%]
1 | 5-(N-(2-(4-(3-(((5-((3-(((3S,8S,11S,14R)-1-(4-(((2-amino-4-oxo-3,4-dihydropteridin-6-yl)methyl)amino)phenyl)-3,14-dicarboxy-8-(carboxymethyl)-11-((3-(5,5-difluoro-7-methyl-5H-5l4,6l4-dipyrrolo[1,2-c:2′,1′-f][1,3,2]diazaborinin-3-yl)propanamido)methyl)-1,6,9,12-tetraoxo-2,7,10,13-tetraazapentadecan-15-yl)thio)-2,5-dioxopyrrolidin-1-yl)methyl)pyrimidin-2-yl)thio)methyl)-1,1,3,3-tetramethyldisiloxanyl)butanamido)ethyl)sulfamoyl)-2-(6-(diethylamino)-3-(diethyliminio)-3H-xanthen-9-yl)benzenesulfonate | 38
2 | (2S,5S,8S,11S,14S,19S)-2-((1-((2-(((3-(3-Acetamidopropyl)-1,1,3,3-tetramethyldisiloxanyl)methyl)thio)pyrimidin-5-yl)methyl)-1H-1,2,3-triazol-4-yl)methyl)-19-(4-(((2-amino-4-oxo-3,4-dihydropteridin-6-yl)methyl)amino)benzamido)-5,8,14-tris(carboxymethyl)-11-(3-guanidinopropyl)-4,7,10,13,16-pentaoxo-3,6,9,12,15-pentaazaicosane-1,20-dioic acid | 17.1
